Data as given in publication PMC12509985, “Phosphoglycerate dehydrogenase interacts with and inhibits the protein kinase TAK1 to mitigate septic shock” (The Journal of Biological Chemistry, 2025).
No constants are given. Whether binding was seen depends on the method and setting. In cells and extracts the contact can be indirect. Some binding calls cover weakened binding; strength is not graded here. For some of these results: Where a sequence is shown, tags or fusion partners need not be part of it.

Assays:
[1] = molecular target: T1, PHGDH-HA, expressed in TLR4-293T cells (UniProt Q61753); assay: co-IP; PHGDH-HA precipitated with anti-HA-agarose from TLR4-293T extracts; without or with LPS 30 min (Fig. 4C), LPS for the indicated times (Fig. 4G), pretreated with 15 μM CBR-5884 for 6 h then LPS 30 min (Fig. 5B); immunoblot
T1 sequence: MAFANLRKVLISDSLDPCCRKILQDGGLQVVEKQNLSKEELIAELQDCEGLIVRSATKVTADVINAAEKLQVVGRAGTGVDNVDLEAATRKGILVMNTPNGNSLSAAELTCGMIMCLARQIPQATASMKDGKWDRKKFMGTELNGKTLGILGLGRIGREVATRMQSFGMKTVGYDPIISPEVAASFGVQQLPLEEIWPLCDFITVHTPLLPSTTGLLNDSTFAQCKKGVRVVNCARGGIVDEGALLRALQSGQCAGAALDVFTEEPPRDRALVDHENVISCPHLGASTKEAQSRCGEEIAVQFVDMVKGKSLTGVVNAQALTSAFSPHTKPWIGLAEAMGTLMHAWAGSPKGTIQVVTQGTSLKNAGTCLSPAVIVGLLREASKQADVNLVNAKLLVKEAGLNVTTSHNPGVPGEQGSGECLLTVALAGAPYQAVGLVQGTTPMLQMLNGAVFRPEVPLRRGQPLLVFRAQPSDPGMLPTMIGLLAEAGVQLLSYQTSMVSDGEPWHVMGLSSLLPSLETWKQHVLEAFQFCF

[2] = molecular target: T2, PHGDH-Flag, expressed in TLR4-293T cells (UniProt Q61753); assay: co-IP; Flag-PHGDH precipitated with anti-Flag beads from TLR4-293T cells transfected with Ctrl-Flag, PHGDH-Flag or PHGDH(V425M)-Flag; immunoblot
T2 sequence: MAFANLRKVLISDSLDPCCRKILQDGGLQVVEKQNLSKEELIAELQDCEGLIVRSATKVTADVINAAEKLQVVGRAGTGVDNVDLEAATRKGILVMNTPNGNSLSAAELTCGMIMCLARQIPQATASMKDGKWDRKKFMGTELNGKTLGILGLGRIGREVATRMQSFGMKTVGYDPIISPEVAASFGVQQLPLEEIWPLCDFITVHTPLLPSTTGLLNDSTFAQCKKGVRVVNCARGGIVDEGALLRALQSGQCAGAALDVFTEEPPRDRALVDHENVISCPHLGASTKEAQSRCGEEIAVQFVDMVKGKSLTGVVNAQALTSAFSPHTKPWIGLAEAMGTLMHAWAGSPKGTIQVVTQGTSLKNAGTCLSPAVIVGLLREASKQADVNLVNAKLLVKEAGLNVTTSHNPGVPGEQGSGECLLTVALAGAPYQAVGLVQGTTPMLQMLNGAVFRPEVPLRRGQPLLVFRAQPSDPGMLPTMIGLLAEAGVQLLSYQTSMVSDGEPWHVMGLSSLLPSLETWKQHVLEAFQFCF

[3] = molecular target: T3, TAK1 in RAW264.7 cells transfected with the indicated plasmids (Figure 6C) (UniProt Q62073); assay: co-IP; RAW264.7 cells transfected with the indicated plasmids and treated with LPS for 30 min; immunoprecipitation and immunoblot
T3 sequence: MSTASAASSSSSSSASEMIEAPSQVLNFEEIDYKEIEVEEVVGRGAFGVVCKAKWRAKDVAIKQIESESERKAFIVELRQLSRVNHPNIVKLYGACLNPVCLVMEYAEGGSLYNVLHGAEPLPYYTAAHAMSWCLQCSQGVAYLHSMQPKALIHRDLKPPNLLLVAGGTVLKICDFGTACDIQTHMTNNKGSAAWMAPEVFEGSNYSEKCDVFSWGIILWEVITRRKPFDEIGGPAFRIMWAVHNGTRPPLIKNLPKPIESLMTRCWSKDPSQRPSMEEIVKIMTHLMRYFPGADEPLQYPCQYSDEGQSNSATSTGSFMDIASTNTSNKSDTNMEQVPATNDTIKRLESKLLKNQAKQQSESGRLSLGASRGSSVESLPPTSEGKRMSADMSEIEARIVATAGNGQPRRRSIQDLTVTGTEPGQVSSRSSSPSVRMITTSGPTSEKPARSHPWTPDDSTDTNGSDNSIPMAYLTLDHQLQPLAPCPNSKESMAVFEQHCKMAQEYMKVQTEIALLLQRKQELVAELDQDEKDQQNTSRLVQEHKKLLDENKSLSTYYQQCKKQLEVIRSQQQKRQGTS

Row | Molecule | binding [3] | further results
1 | DNAJA1 (molecular chaperone) in TLR4-293T cell extracts (from UniProt P31689 1-397) | – | binding [1]: binds
2 | TAK1 in extracts of TLR4-293T cells transfected with the Flag-PHGDH plasmids (Figure 5F) (enzyme, UniProt O43318 1-606) MSTASAASSSSSSSAGEMIEAPSQVLNFEEIDYKEIEVEEVVGRGAFGVVCKAKWRAKDVAIKQIESESERKAFIVELRQLSRVNHPNIVKLYGACLNPVCLVMEYAEGGSLYNVLHGAEPLPYYTAAHAMSWCLQCSQGVAYLHSMQPKALIHRDLKPPNLLLVAGGTVLKICDFGTACDIQTHMTNNKGSAAWMAPEVFEGSNYSEKCDVFSWGIILWEVITRRKPFDEIGGPAFRIMWAVHNGTRPPLIKNLPKPIESLMTRCWSKDPSQRPSMEEIVKIMTHLMRYFPGADEPLQYPCQYSDEGQSNSATSTGSFMDIASTNTSNKSDTNMEQVPATNDTIKRLESKLLKNQAKQQSESGRLSLGASRGSSVESLPPTSEGKRMSADMSEIEARIAATTAYSKPKRGHRKTASFGNILDVPEIVISGNGQPRRRSIQDLTVTGTEPGQVSSRSSSPSVRMITTSGPTSEKPTRSHPWTPDDSTDTNGSDNSIPMAYLTLDHQLQPLAPCPNSKESMAVFEQHCKMAQEYMKVQTEIALLLQRKQELVAELDQDEKDQQNTSRLVQEHKKLLDENKSLSTYYQQCKKQLEVIRSQQQKRQGTS | – | binding [2]: binds
3 | TAB1 (TAK1-binding protein) in RAW264.7 cells transfected with the indicated plasmids (Figure 6C) (protein, UniProt Q8CF89 1-502) MAAQRRSLLQSEQQPSWTDDLPLCHLSGVGSASNRSYSADGKGTESHPPEDNWLKFRSENNCFLYGVFNGYDGNRVTNFVAQRLSAELLLGQLNTEHTEADVRRVLLQAFDVVERSFLESIDDALAEKASLQSQLPEGVPQHQLPPQYQKILERLKALEREISGGAMAVVAVLLNSKLYVANVGTNRALLCKSTVDGLQVTQLNMDHTTENEDELFRLSQLGLDAGKIKQMGVICGQESTRRIGDYKVKYGYTDIDLLSAAKSKPIIAEPEIHGAQPLDGVTGFLVLMSEGLYKALEAAHGPGQANQEIAAMIDTEFAKQTSLDAVAQAVVDRVKRIHSDTFASGGERAKFCPRHEDMTLLVRNFGYPLGEMSQPTPTPAPGGRVYPVSVPYSSAQSTSKTSVTLSLVMPSQGQMVNGSHSASTLDEATPTLTNQSPTLTLQSTNTHTQSSSSSSDGGLFRSRPAHSLPPGEDGRVEPYVDFAEFYRLWSVDHGEQSVMTAP | binds | –
4 | PHGDH overexpressed in RAW264.7 cells (Figure 6C) (enzyme, UniProt Q61753 1-533) MAFANLRKVLISDSLDPCCRKILQDGGLQVVEKQNLSKEELIAELQDCEGLIVRSATKVTADVINAAEKLQVVGRAGTGVDNVDLEAATRKGILVMNTPNGNSLSAAELTCGMIMCLARQIPQATASMKDGKWDRKKFMGTELNGKTLGILGLGRIGREVATRMQSFGMKTVGYDPIISPEVAASFGVQQLPLEEIWPLCDFITVHTPLLPSTTGLLNDSTFAQCKKGVRVVNCARGGIVDEGALLRALQSGQCAGAALDVFTEEPPRDRALVDHENVISCPHLGASTKEAQSRCGEEIAVQFVDMVKGKSLTGVVNAQALTSAFSPHTKPWIGLAEAMGTLMHAWAGSPKGTIQVVTQGTSLKNAGTCLSPAVIVGLLREASKQADVNLVNAKLLVKEAGLNVTTSHNPGVPGEQGSGECLLTVALAGAPYQAVGLVQGTTPMLQMLNGAVFRPEVPLRRGQPLLVFRAQPSDPGMLPTMIGLLAEAGVQLLSYQTSMVSDGEPWHVMGLSSLLPSLETWKQHVLEAFQFCF | binds | –
